PubChem BioAssay AID1259254 | NCATS | 2017

- Test: 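Genome-wide screen for genes that prevent DNA re-replication in cancer cells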 (primary screen)
- Cell system: human HCT116 colorectal cancer cells
- Knock-down reagent: single siRNA against human genes
- Timing: 3 days
- Measured: 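Imaged Hoechst DNA stain sorts each cell into a cycle phase by DNA amount; per plate, G2 fraction set to 0% for non-targeting and 100% for GMNN siRNA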
- Reading the numbers: G2 robust z-score and G2 cells, % of GMNN control: higher = more G2 cells, more excess DNA replication; raw share of cells in G2: higher = larger share of cells with G2 DNA content
- Call rule: 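Active siRNAs have a G2 robust z of 5 or more median absolute deviations over the median, which in these data means about 38% or higher of GMNN control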
The whole screen tested about 59,000 reagents; this is an unselected part. About 1,550 of all reagents (2.6%) count as active. 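G2 share is only a proxy for re-replication; each gene was hit by three separate siRNAs, and active genes were retested.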 Raw values vary from plate to plate and are shown uncorrected. Reagents against one gene are numbered here. The record does not give: the amount of reagent.

Target gene	siRNA no.	G2 robust z-score	G2 cells, % of GMNN control	raw share of cells in G2 (%)	outcome
DHCR7	1	3.73	29.2	15.4	inactive
DHCR7	2	1.87	16.2	10.9	inactive
DHCR7	3	-0.776	-2.49	3.24	inactive
LIN52	1	2.03	17.2	11.4	inactive
LIN52	2	0.15	4.02	4.26	inactive
LIN52	3	1.29	12.1	6.75	inactive
STUM	1	0.304	5.11	6.82	inactive
STUM	2	2.88	23.2	11.7	inactive
STUM	3	4.48	34.5	18.4	inactive
RND1	1	0.497	6.46	6.11	inactive
RND1	2	-0.237	1.3	6.75	inactive
RND1	3	-0.932	-3.59	2.99	inactive
DUSP11	1	-0.923	-3.53	3.65	inactive
DUSP11	2	0.242	4.67	5.71	inactive
DUSP11	3	-0.549	-0.893	3.23	inactive
HSD17B13	1	0.111	3.75	7.52	inactive
HSD17B13	2	0.112	3.76	6.43	inactive
HSD17B13	3	-0.471	-0.344	4.16	inactive
WASF1	1	1.14	11	9.99	inactive
WASF1	2	-0.478	-0.398	3.74	inactive
WASF1	3	-0.186	1.66	3.93	inactive
COL5A1	1	0.195	4.34	5.18	inactive
COL5A1	2	-0.104	2.24	5.89	inactive
COL5A1	3	2.78	22.5	11.3	inactive
HNRNPCL1	1	1.68	14.8	10.7	inactive
HNRNPCL1	2	-0.981	-3.94	2.85	inactive
HNRNPCL1	3	0.537	6.74	8.82	inactive
TMEM132E	1	-0.668	-1.73	3.4	inactive
TMEM132E	2	-0.369	0.373	3.44	inactive
TMEM132E	3	-0.418	0.0241	1.83	inactive
MIR205HG	1	2.17	18.2	10.7	inactive
MIR205HG	2	-0.647	-1.58	2.82	inactive
MIR205HG	3	0.0454	3.29	4.24	inactive
COLCA1	1	3.92	30.5	14.9	inactive
COLCA1	2	0.847	8.93	7.06	inactive
COLCA1	3	0.311	5.16	6.93	inactive
DUSP15	1	-0.254	1.18	6.22	inactive
DUSP15	2	0.34	5.36	7.27	inactive
DUSP15	3	2.79	22.6	13	inactive
OR4A15	1	-0.733	-2.19	3.54	inactive
OR4A15	2	2.51	20.6	13.3	inactive
OR4A15	3	-0.754	-2.34	1.74	inactive
ZFP2	1	1.89	16.3	8.53	inactive
ZFP2	2	-0.315	0.748	6.25	inactive
ZFP2	3	0.328	5.27	5.29	inactive
XPA	1	-0.296	0.885	4.59	inactive
XPA	2	0.23	4.59	5.99	inactive
XPA	3	-0.64	-1.54	4.95	inactive
